# Test results: PubChem BioAssay AID588463 (National Center for Advancing Translational Sciences (NCATS), 2011)
# About 15 (1%) of roughly 1,200 compounds were called active. Roughly 7% stayed inconclusive and do not appear here. Calls come from the whole dose curve; as a rule, active = well fitted activation curve with a large enough effect; inconclusive = small, poorly fitted or top-dose-only effect; inactive = flat fitted curve, though single readings scatter. The list shows a part of the results.
# Molecular target: Beta-2 adrenergic receptor (Homo sapiens) (UniProt P07550)
# Test: qHTS assay of beta-arrestin-biased ligands of beta2-adrenergic receptor: Hit Validation;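 for activation: plate controls were DMSO for no effect and maximal isoproterenol or metaproterenol response for full effect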
# Settings: cell-based beta-arrestin recruitment to beta2AR; Potency: activation; series mostly up to 46.1 µM; activation: at the top concentration
# Summary of the method: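 Tango beta-arrestin recruitment assay in cells at 1500 cells/well in 1% FBS medium, 18 h compound exposure at 37 °C. Luciferase luminescence read 15 min after substrate addition; %activity curves classified by curve class.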
# Potency is the fitted concentration of half-maximal effect.
SMILES,activation,Potency
Cc1cc(C(=O)C(C)Sc2cccc[n+]2[O-])c(C)n1-c1ccc(Cl)cc1 (stereo not given),inactive: -3.82%,–
COCCCNC(=S)N/N=C/c1ccc(OC)c(Br)c1,inactive: -1.26%,–
CC(=O)N1CCN(CC(=O)c2ccc(Br)cc2)CC1,inactive: -1.68%,–
Cc1cccc(NC(=S)N/N=C/c2cccc([N+](=O)[O-])c2)c1,inactive: -3.51%,–
C(=N\N=C\c1cccnc1)/c1cccnc1,inactive: -2.73%,–
C(=C\c1ccco1)/C1=NN(c2ccccc2)C(c2ccco2)C1 (stereo not given),inactive: -0.565%,–
Cn1cccc1C(=O)NC(=O)CSc1cccc[n+]1[O-],inactive: -3.1%,–
NC(=S)NN=C1c2ccccc2-c2ccccc21,inactive: -2.56%,–
C=C(C)CNC(=S)N/N=C/c1c(F)cccc1F,inactive: -2.74%,–
Cn1c(=O)n(/N=C/c2ccccc2)c2ccccc21,inactive: -4.05%,–
Cc1ccc(C2CC2c2n[nH]c(=S)n2-c2cccc(C)c2)cc1 (stereo not given),inactive: -2.82%,–
O=C(COC(=O)c1n[nH]c(=O)c2ccccc12)NCc1ccccc1,inactive: -0.0692%,–
CCN(CC)C(=O)CN(c1cccc(OC)c1)S(=O)(=O)c1ccc(C)cc1,inactive: -4.37%,–
CCN(CC)CCN(Cc1cc2cc3c(cc2[nH]c1=O)OCCO3)C(=S)NCC1CCCO1 (stereo not given),inactive: -5.31%,–
Cc1nc(SCC(=O)N2CCOCC2)c2c3c(sc2n1)CCC3,inactive: -2.56%,–
CC1(C)CC(=O)c2cnc(NCC3CCCO3)nc2C1 (stereo not given),inactive: -2.57%,–
CCCn1nnc(NC(=S)NC(=O)Cc2ccccc2)n1,inactive: 0.0105%,–
CN1CCN(c2ccc(C(F)(F)F)cc2NC(=O)c2ccco2)CC1,inactive: -3.16%,–
C=CCn1c(-c2ccc(Cl)cc2)c[nH]c1=S,inactive: -0.418%,–
Cc1cc(NC(=S)Nc2ccc(C)c(Cl)c2)n[nH]1,inactive: -1.62%,–
CCn1c2ccccc2c2c3ncc4cccn4c3ccc21,inactive: -0.556%,–
O=C(CSc1cccc[n+]1[O-])Nc1ccccc1Oc1ccccc1,inactive: -3.96%,–
CCC1CCCCN1CC(=O)Nc1cc(C)nn1-c1nc(C)cc(C)n1 (stereo not given),inactive: -2.24%,–

# Part of the list above, tab-delimited.
SMILES	activation	Potency
C=CCn1c(-c2ccc(Cl)cc2)c[nH]c1=S	inactive: -0.418%	–
Cc1cc(NC(=S)Nc2ccc(C)c(Cl)c2)n[nH]1	inactive: -1.62%	–
CCn1c2ccccc2c2c3ncc4cccn4c3ccc21	inactive: -0.556%	–
O=C(CSc1cccc[n+]1[O-])Nc1ccccc1Oc1ccccc1	inactive: -3.96%	–

# Taken from above:
# O=C(COC(=O)c1n[nH]c(=O)c2ccccc12)NCc1ccccc1 | activation: inactive: -0.0692%
# C=CCn1c(-c2ccc(Cl)cc2)c[nH]c1=S | activation: inactive: -0.418%

# Further compounds.

SMILES,activation,Potency
Cc1ccc(C(=O)Oc2ccc(Cl)c3cccnc23)cc1[N+](=O)[O-],inactive: 4.83%,–
CCN(CC)c1ccc(NC2=C(Cl)C(=O)c3ccccc3C2=O)cc1,inactive: -3.58%,–
N#Cc1nc(-c2ccc(OCc3ccc(Cl)cc3)cc2)oc1NCCCn1ccnc1,inactive: -1.82%,–
C=CCOc1c(Br)cc(CNc2ccc(NC(=O)C(C)C)c(OC)c2)cc1OCC,inactive: -3.48%,–
S=C(NCCN1CCOCC1)N/N=C/c1cccs1,inactive: -3.37%,–
CCCCn1c(Cc2ccccc2)n[nH]c1=S,inactive: -2.41%,–
CC(=O)Nc1ccc(S(=O)(=O)N2CCC(c3nnc(-c4ccc(C)cc4)o3)CC2)cc1,inactive: -2.84%,–
Cc1cc(Cl)ccc1NC(=S)Nc1ccccn1,inactive: -0.457%,–
O=C1NC2(C=Cc3c(ccc4ccccc34)O2)Oc2ccccc21 (stereo not given),inactive: -3.25%,–
O=C(CS(=O)(=O)c1ccccc1)Nc1nc2ccccc2s1,inactive: 0.232%,–
Cc1noc(C)c1COc1cccc(C(=O)Nc2ccccc2N2CCOCC2)c1,inactive: -1.11%,–
O=C(/C=C/c1ccccc1)/C=C/c1ccccc1,inactive: -4.44%,–
C/C(CC1CC2=C(CC1(C)C)C(C)(C)CCC2)=N\NC(N)=S (stereo not given),inactive: -3.25%,–
O=C(Oc1c(Cl)cc(Cl)c2cccnc12)c1ccco1,inactive: 1.01%,–
CCc1nnc(NC(=O)c2ccc3ccccc3n2)s1,inactive: 2.67%,–
CCOC(=O)c1c(NC(=O)CSc2cccc[n+]2[O-])sc(C(=O)Nc2ccccc2)c1C,inactive: -0.439%,–
COc1ccc2c(c1)OC[C@H]1[C@H]2N2C(=O)c3ccc(C)cc3NC(=O)[C@@]2(C)[C@H]1c1ccccc1,inactive: -0.129%,–
Cc1ccc(/C=C/C(=O)c2ccccc(=O)c2O)c(C)c1,inactive: 0.972%,–
CCOC(=O)C1=C(C)N(c2ccc(C)cc2)C(=O)/C1=C\c1ccc(O)c(OC)c1,inactive: 0.409%,–
CC1=NN(C(N)=S)C(=O)C1N=Nc1ccc(F)cc1 (stereo not given),inactive: 0.894%,–
CC(C)(C)NC(=O)C(c1ccc(F)cc1)N(Cc1ccccc1Cl)C(=O)c1ccn[nH]1 (stereo not given),inactive: 7.27%,–
C[C@H](CO)N1C[C@H](C)[C@@H](CN(C)Cc2ccccc2)Oc2c(NC(=O)Cc3ccccc3)cccc2C1=O,inactive: 7.66%,–
CCN(Cc1ccc2c(c1)OCCO2)C(=O)CN1C(=O)NC2(CCc3ccccc32)C1=O (stereo not given),inactive: -0.571%,–

# Rewritten tab-delimited: entries from further up
SMILES	activation	Potency
O=C1NC2(C=Cc3c(ccc4ccccc34)O2)Oc2ccccc21 (stereo not given)	inactive: -3.25%	–
O=C(CS(=O)(=O)c1ccccc1)Nc1nc2ccccc2s1	inactive: 0.232%	–
Cc1noc(C)c1COc1cccc(C(=O)Nc2ccccc2N2CCOCC2)c1	inactive: -1.11%	–
O=C(/C=C/c1ccccc1)/C=C/c1ccccc1	inactive: -4.44%	–

# Following part:

SMILES,activation,Potency
CCOc1ccc(/C(CCC(=O)O)=N/NC(=S)NCCc2ccccc2)cc1,inactive: -2%,–
Cc1ccc(C)c(-n2c(SCC(=O)O)nc3sc4c(c3c2=O)CCCC4)c1,inactive: 0.43%,–
C/C(CCc1ccccc1)=N/NC(=O)C(=O)NC(C)c1ccccc1 (stereo not given),inactive: -3.24%,–
Cc1cc(C)n(-c2nc(NC(C)C)nc(NC(C)C)n2)n1,inactive: -3.01%,–
COCCNC(=S)N/N=C(\C)CCc1ccc2c(c1)OCO2,inactive: -3.71%,–
CCNC(=S)NNc1ccccc1,inactive: -0.243%,–
C/C(=N\NC(=S)NC(C)C)c1ccccc1,inactive: -3.07%,–
O=C(/C=C/Sc1ncn[nH]1)c1ccc(Cl)cc1,inactive: -7.78%,–
O=C(O)CCC(=O)N1N=C(c2ccccc2)CC1c1ccc2nccnc2c1 (stereo not given),inactive: -2.51%,–
O=[N+]([O-])c1ccc(O)c2ncccc12,inactive: -2.92%,–
O=C(/C=C/c1ccc(Cl)cc1)NC(=S)Nc1ccccc1C(=O)O,inactive: 0.6%,–
Cc1cc(C)nc(S/C=C/C(=O)c2ccccc2)n1,inactive: -1.99%,–
CC/C(=N\NC(=S)NC(C)C)c1ccc(OC)c(OC)c1,inactive: -4.65%,–
CC(Oc1ccc(Br)cc1)C(=O)Nc1nc(-c2ccccn2)cs1 (stereo not given),inactive: 5.09%,–
NC(=S)NN=C1C2CC3CC(C2)CC1C3,inactive: -2.78%,–
FC(F)(F)c1ccc(Cl)c(-n2c(Cc3cccs3)n[nH]c2=S)c1,inactive: -2.18%,–
O=C(OCc1ccc([N+](=O)[O-])cc1Cl)c1cnccn1,inactive: -4.6%,–
C=CCN1CCc2cc(O)c(O)cc2C(c2ccccc2)C1 (stereo not given),inactive: -3.24%,–
COc1cc(/C=N/NC(N)=S)ccc1OC(=O)c1ccc(C)cc1,inactive: -2.34%,–
C/C(=N\NC(=S)NCc1ccccc1)c1ccccc1F,inactive: -1.61%,–
CN1C(=S)SC(C)(C)C1(C)NO (stereo not given),inactive: -3.28%,–
COCCCNC(=S)N/N=C/c1cccc(OC)c1O,inactive: -2.06%,–
CC(OC(=O)Cc1ccccc1[N+](=O)[O-])C(=O)Nc1ccc(Cl)cn1 (stereo not given),inactive: 1.98%,–

SMILES,activation,Potency
CC(=O)c1ccc(N2CCN(C(=O)C3CCCN(S(=O)(=O)c4c(C)[nH]c(=O)[nH]c4=O)C3)CC2)cc1 (stereo not given),inactive: -4.9%,–
CNC(=S)N/N=C/c1cc(C)ccc1C,inactive: -3.17%,–
COc1ccc(OCC(O)CN2CCN(c3ccccc3)CC2)cc1 (stereo not given),inactive: -3.18%,–
CC(C)(C)NC(=S)NNC(=O)c1cccc(Br)c1,inactive: -2.45%,–
c1coc(CNc2nc3nonc3nc2NCc2ccco2)c1,inactive: -4.43%,–
Cc1nonc1NC(=O)CSc1nc2ccccc2o1,inactive: -2.99%,–
O=C(CSc1n[nH]c(=O)n1-c1cccnc1)N1CCOCC1,inactive: -2.41%,–
CNc1sc(C(=O)c2cccs2)c(N)c1-c1nc2ccccc2s1,inactive: -2.76%,–
S=c1[nH]c(-c2ccccc2)cn1/N=C/c1cccs1,inactive: -3.12%,–
c1ccc2[nH]c(NN=C3CCCCCC3)nc2c1,inactive: -0.141%,–
CCOc1ccc(C(=O)Nc2ccccc2OC(F)F)cc1,inactive: -4.99%,–
CCCCCC1CCC(c2n[nH]c(=S)n2C)CC1 (stereo not given),inactive: -5.76%,–
CCOC(=O)c1cccc(NC(=O)c2cncc(Br)c2)c1,inactive: -2%,–
FC(F)(F)c1cnc(N2CCSCC2)c(Cl)c1,inactive: -6.12%,–
Cc1cc(NC(=O)CSc2nnc(-c3ccoc3C)o2)no1,inactive: -0.559%,–
CC1CC(C)CN(C(=O)C2CCN(C(=O)Nc3ccccc3)CC2)C1 (stereo not given),inactive: -3.35%,–
C/C(=N\NC(=S)NCCc1ccccc1)c1ccc(Cl)cc1Cl,inactive: -2.3%,–
CCOc1ccc(CC(=O)Nc2ccc(S(=O)(=O)Nc3cc(C)on3)cc2)cc1OCC,inactive: -2.63%,–
COC(=O)COc1cccc2c(=O)n(CC(=O)Nc3ccc4c(c3)OCCO4)ccc12,inactive: -2.75%,–
O=C(O)c1ccc(C2Nc3ccccc3C(=O)N2Cc2ccccc2)cc1 (stereo not given),inactive: -0.733%,–
COCCOC(=O)c1sc(=S)n(CCOC)c1N,inactive: -0.28%,–
Cc1ccc(C2C3=C(CC(C)(C)CC3=O)NC3=C2C(=O)c2ccccc23)cc1 (stereo not given),inactive: 0.4%,–
O=C(N/N=C/c1ccc(Br)s1)c1cccnc1,inactive: -0.956%,–

SMILES,activation,Potency
Oc1c(C(c2ccccn2)N2CCCCC2)cc(Cl)c2cccnc12 (stereo not given),inactive: 5.16%,–
Cc1ccc2c(c1)C(=O)N1[C@H]3c4ccccc4OC[C@@H]3[C@H](c3ccccc3)[C@]1(C)C(=O)N2,inactive: 1.92%,–
CN(c1ccccc1)S(=O)(=O)c1ccc(C(=O)Nc2nccs2)cc1,inactive: -3.61%,–
CC(C)c1nnc(NC(=O)c2cnccn2)s1,inactive: 0.236%,–
CCc1nnc(NC(=O)CSc2nnc(-c3ccccc3NC(=O)c3ccccc3)o2)s1,inactive: -3.34%,–
Cc1ccccc1NC(=O)NNC(=O)c1ccc2ccccc2c1O,inactive: -2.57%,–
Cc1ccccc1-c1nc2c3ccccc3nc(=S)n2[nH]1,inactive: -2.3%,–
Cc1cccc(-c2ocnc2C(=O)Nc2ccccc2NC(=O)c2ccccn2)c1,inactive: -0.383%,–
COC(=O)C1=C(C)N(Cc2ccc(C)cc2)C(=O)/C1=C\c1ccc(O)c(OC)c1,inactive: -0.487%,–
COc1ccc(NC(=O)CN(C)C(=O)CCCNC(=O)c2ccc(Cl)cc2)cc1,inactive: -0.626%,–
CCCC(=O)NC(c1ccc(OC)cc1)c1ccc2cccnc2c1O (stereo not given),–,active: 4.11 µM
CC(=O)Nc1ccc(NC(=O)Cn2nc(C(=O)Nc3ccc(C)cc3)ccc2=O)cc1,inactive: -1.69%,–
O=C(Oc1c(-c2ccco2)oc2ccccc2c1=O)c1cccnc1,inactive: 4.95%,–
CC(C)OC(=O)c1cn(-c2ccccc2)nc1-c1ccco1,inactive: -0.0451%,–
C=CCNC(=S)N/N=C/c1ccc(C)cc1C,inactive: -3.51%,–
O=[N+]([O-])c1cc(Cl)c(O)c2ncccc12,inactive: -3.14%,–
N#C/C(=C\c1cccc(O)c1)C(=O)Nc1ccc2c(c1)OCCO2,inactive: -1.72%,–
O=C(NCCN1CCOCC1)c1ccccc1Cl,inactive: 0.534%,–
Cc1cc(-c2ccccc2)nc(N/N=C/c2ccccc2F)n1,inactive: -1.55%,–
N#CC1=C(N)OC2=C(CC/C2=C\c2ccccc2)C1c1ccccc1 (stereo not given),inactive: -3.08%,–
C/C(=N\NC(=S)NCc1ccccc1)c1ccc(C)o1,inactive: -0.562%,–
O=C(C[n+]1cn(C(F)F)c2ccccc21)c1ccc(OC(F)F)cc1,inactive: -5.07%,–
CC(=O)Nc1ccc(NC(=O)CSc2nnc(-c3cccs3)n2N)cc1,inactive: -1.04%,–
